Laboratory results taken from patent EP2045266A1, “Methods for treating and diagnosing a cancer secreting cath-D or Alzheimer's disease” (priority 2007, dated 2009).
No constants are given. Whether binding was seen depends on the method and setting. In cells and extracts the contact can be indirect. Binding calls can cover weak binding; strength is not graded here.

The chains behind the UniProt entries cited, without tags or fusion partners. Where a name states a change or a piece, a line headed by the entry shows the natural chain unless it says otherwise.
UniProt Q07954: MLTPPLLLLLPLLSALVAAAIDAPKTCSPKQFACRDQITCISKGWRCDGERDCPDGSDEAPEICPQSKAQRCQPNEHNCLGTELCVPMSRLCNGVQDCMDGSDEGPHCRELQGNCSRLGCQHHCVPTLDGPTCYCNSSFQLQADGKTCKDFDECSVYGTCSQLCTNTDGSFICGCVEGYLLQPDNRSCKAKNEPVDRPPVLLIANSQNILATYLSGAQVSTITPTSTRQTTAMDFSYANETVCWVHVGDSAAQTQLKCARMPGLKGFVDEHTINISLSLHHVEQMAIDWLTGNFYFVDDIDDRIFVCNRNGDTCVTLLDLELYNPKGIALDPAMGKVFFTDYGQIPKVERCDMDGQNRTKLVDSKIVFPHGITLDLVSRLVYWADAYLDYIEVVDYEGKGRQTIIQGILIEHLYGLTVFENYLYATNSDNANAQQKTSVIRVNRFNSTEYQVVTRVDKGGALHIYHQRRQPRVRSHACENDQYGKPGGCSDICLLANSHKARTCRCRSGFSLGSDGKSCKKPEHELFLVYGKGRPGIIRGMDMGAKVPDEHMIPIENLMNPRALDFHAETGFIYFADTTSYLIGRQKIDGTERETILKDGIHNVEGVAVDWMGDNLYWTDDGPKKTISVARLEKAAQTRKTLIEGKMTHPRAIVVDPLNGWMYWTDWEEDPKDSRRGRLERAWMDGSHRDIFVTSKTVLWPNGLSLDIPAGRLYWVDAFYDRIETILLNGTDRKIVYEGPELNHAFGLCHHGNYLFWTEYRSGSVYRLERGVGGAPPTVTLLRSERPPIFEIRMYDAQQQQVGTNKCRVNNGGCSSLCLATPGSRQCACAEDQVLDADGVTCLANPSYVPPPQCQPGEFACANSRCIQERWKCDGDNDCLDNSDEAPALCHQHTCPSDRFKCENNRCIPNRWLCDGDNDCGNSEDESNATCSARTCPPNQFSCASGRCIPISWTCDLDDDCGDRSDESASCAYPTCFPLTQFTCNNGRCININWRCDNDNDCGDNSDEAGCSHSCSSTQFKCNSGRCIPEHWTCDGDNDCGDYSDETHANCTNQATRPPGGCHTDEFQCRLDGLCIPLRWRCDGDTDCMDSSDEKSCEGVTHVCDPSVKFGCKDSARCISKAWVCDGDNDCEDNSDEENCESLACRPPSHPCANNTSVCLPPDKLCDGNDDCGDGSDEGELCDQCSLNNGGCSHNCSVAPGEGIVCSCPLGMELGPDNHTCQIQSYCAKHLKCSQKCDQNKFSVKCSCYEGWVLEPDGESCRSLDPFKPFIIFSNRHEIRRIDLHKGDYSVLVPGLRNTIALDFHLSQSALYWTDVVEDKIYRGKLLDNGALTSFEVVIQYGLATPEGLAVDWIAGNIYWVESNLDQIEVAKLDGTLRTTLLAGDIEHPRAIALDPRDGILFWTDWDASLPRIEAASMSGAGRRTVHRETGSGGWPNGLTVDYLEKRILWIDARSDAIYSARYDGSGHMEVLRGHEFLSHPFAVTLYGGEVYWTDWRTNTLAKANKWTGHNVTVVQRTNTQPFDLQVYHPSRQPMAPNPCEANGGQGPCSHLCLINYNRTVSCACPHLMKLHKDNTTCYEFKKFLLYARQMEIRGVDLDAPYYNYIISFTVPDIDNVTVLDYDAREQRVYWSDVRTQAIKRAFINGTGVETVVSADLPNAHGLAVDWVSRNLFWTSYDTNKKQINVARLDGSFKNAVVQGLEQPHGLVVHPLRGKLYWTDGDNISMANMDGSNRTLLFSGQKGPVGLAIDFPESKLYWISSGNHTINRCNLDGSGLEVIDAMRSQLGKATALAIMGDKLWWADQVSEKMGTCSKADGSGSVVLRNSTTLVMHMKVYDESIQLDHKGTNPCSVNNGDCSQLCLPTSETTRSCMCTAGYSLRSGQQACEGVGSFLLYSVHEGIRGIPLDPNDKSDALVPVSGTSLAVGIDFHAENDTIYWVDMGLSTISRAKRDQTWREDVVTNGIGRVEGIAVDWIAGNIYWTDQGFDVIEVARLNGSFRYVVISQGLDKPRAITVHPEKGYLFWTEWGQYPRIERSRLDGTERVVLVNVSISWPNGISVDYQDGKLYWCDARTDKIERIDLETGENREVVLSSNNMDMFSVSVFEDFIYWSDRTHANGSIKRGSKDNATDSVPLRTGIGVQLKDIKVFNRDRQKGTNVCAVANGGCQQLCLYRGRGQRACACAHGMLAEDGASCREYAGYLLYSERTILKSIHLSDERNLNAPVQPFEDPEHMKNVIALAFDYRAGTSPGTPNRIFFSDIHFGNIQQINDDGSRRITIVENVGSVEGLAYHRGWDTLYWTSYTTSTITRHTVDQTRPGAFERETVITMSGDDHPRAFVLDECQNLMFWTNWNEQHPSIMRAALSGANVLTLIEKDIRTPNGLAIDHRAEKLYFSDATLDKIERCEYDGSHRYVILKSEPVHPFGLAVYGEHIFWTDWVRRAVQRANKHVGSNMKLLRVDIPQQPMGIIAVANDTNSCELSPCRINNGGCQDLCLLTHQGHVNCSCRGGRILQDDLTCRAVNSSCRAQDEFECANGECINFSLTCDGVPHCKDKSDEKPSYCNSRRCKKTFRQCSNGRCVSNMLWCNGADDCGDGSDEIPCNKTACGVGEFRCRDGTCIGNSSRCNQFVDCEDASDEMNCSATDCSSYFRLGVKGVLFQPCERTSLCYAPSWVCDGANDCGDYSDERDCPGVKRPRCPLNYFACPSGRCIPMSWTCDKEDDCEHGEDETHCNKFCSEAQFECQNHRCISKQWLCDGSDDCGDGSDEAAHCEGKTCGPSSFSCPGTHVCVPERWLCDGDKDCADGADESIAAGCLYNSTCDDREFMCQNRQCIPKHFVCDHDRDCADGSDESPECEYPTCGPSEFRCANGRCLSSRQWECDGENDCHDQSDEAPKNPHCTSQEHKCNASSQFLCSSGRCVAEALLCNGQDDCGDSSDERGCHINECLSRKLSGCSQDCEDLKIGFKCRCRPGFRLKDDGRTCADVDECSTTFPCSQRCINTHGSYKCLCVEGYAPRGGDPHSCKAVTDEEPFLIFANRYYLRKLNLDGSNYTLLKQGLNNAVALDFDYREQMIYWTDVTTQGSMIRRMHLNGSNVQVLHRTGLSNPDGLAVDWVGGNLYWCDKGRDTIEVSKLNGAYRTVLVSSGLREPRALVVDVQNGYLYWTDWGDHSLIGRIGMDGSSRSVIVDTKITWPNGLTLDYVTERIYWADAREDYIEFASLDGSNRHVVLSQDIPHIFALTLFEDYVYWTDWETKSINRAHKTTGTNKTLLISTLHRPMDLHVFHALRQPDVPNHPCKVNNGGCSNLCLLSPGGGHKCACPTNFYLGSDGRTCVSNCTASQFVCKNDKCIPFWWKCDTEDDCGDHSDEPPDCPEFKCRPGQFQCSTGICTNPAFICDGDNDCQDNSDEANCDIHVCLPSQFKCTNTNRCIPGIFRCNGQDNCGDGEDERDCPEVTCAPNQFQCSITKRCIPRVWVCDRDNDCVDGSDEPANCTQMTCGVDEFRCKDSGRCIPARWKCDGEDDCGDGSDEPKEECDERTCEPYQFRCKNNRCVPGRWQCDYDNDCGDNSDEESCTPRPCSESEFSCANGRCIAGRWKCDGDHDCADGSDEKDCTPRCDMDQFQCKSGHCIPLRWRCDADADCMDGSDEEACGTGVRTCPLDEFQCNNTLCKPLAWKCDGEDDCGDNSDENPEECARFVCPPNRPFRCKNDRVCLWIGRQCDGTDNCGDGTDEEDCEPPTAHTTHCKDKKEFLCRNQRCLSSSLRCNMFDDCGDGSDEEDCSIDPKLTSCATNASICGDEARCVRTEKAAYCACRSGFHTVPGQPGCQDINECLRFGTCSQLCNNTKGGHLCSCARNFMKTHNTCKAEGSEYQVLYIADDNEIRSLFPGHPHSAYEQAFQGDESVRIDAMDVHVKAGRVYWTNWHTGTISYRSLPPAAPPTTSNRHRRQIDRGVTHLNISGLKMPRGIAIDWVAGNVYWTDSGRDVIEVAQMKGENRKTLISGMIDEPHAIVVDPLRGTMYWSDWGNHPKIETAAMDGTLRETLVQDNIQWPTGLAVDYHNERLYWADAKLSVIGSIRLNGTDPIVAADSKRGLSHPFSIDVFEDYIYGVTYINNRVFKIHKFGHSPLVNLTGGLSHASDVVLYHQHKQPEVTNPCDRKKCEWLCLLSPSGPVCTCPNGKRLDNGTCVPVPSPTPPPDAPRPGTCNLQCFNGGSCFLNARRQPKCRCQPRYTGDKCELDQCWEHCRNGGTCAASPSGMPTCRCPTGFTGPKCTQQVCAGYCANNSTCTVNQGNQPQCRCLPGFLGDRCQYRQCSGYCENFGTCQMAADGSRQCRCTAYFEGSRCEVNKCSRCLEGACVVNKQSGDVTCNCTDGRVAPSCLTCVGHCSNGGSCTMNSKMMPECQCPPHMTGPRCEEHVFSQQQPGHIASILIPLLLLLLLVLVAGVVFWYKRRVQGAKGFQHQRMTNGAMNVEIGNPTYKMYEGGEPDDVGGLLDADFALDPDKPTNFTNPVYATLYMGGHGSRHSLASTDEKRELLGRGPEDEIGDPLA
UniProt P07339: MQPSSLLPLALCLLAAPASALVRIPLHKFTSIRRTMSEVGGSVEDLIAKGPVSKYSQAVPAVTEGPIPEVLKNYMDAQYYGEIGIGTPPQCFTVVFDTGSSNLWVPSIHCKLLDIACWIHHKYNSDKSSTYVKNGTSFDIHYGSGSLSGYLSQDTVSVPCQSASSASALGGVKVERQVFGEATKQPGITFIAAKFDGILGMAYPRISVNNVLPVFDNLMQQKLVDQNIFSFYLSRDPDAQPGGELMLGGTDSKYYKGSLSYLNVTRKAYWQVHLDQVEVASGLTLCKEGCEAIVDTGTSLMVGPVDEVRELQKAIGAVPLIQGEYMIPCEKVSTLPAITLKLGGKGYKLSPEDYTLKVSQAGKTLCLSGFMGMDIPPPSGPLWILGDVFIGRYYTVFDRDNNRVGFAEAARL

Target: LRP1-IV-HA mini-receptor (UniProt Q07954)
Experiment: co-immunoprecipitation from co-transfected COS cells, anti-LRP1β IP, anti-cath-D blot

- binding: binds
Substance: D231N cath-D (catalytically inactive mutant of human cath-D, precursor form) (from UniProt P07339) (enzyme)
